Assay results published in PMC12501252.
Results are given in words; binding and its absence hold for the method and conditions named. For some assays here: Binding calls can cover weak binding; strength is not graded here.

Legend:
[1] = biological target: T1, CHCHD3 (mouse) (mouse (endogenous in mouse tissues)) (UniProt Q9CRB9); experiment: native gel or EMSA; two-dimensional BN-PAGE/SDS-PAGE with Western blot; mitochondria from brain, heart and skeletal muscle of Chchd2+/+ and Chchd2-/- mice, and from heart, skeletal muscle and liver of mouse models of mitochondrial dysfunction (RNaseH1, Tfam, Tefm knockouts, IMT treatment) and controls; solubilised in 1% DDM or 1% digitonin
T1 sequence: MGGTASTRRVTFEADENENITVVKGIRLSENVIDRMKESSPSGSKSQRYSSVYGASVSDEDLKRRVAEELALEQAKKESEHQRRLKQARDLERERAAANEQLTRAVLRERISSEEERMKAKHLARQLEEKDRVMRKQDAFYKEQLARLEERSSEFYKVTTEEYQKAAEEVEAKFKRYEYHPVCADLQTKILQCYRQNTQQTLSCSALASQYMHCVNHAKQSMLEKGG

[2] = biological target: T2, CHCHD2 (mouse) (mouse (endogenous in mouse tissues)) (UniProt Q9D1L0); experiment: as above
T2 sequence: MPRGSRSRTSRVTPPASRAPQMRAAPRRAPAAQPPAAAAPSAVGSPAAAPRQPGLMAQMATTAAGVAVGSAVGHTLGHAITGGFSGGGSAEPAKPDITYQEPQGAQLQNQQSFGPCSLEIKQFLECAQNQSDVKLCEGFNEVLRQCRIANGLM

Question: Which binding [1] does the source give for CHCHD10 (mouse) here?
Answer: Its binding is “no binding”.

Question: What about the binding [2] of the same substance?
Answer: The binding was “binds”.
